This is one part of the list.
Experiments:
Test in all cases: log2 fold change, soluble protein after heating vs DMSO (PISA); higher = thermal stabilisation; K562 cells, 10 uM, 30 min; active = over 0.2 and 3.5 SD of the protein, either way, in both replicates (recomputed)
[1] = compound: CC[C@@H]1C(=O)N(C)c2cnc(Nc3ccc(C(=O)NC4CCN(C)CC4)cc3OC)nc2N1C1CCCC1
Procedure, shortened: (§1)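 Aliquots of K562 cells (2×10^6 cells/mL) treated with 10 μM compound for 30 min were heated for 3 min over 48°C-58°C. After pooling and extraction in PBS with 0.5% NP-40 at 4°C, soluble protein from a 21,000xg, 90 min spin was quantified by TMTpro 16plex LC-MS/MS with channel sums equalised. Thermal stability is expressed against control samples, from duplicates, as a log2 fold change.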

Protein sequences, listed by entry. Tags and fused reporters are not part of them. Lines headed by an entry give the natural chain unless they say otherwise; changes in a name come on top.
UniProt Q92604: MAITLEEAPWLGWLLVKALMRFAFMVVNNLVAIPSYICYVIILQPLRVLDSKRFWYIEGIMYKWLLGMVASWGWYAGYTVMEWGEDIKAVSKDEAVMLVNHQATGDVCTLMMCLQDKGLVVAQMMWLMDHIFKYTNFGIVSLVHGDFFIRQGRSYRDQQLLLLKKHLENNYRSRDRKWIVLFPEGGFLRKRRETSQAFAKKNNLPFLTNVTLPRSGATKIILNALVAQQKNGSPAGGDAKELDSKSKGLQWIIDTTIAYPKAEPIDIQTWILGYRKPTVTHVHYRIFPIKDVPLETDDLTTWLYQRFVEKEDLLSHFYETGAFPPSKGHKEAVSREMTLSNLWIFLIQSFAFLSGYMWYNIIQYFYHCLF
UniProt Q71RC2, whole entry, looked up: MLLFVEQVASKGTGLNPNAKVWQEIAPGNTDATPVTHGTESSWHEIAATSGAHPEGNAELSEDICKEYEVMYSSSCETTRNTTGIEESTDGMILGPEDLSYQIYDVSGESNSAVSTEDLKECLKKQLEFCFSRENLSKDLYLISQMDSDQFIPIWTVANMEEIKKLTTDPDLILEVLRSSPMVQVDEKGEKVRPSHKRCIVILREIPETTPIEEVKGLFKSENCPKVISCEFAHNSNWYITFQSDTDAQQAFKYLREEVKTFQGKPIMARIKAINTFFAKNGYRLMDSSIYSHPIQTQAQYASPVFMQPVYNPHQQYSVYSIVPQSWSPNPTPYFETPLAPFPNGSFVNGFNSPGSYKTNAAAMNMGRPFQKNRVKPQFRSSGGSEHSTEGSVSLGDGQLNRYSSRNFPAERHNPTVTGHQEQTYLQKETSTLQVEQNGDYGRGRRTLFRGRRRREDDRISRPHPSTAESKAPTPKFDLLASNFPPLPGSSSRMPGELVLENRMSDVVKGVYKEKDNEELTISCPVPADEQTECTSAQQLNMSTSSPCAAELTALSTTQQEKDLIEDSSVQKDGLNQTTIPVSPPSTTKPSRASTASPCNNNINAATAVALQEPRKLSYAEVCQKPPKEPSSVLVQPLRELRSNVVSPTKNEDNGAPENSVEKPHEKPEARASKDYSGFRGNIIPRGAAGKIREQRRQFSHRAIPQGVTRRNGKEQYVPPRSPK
UniProt Q9BQK8: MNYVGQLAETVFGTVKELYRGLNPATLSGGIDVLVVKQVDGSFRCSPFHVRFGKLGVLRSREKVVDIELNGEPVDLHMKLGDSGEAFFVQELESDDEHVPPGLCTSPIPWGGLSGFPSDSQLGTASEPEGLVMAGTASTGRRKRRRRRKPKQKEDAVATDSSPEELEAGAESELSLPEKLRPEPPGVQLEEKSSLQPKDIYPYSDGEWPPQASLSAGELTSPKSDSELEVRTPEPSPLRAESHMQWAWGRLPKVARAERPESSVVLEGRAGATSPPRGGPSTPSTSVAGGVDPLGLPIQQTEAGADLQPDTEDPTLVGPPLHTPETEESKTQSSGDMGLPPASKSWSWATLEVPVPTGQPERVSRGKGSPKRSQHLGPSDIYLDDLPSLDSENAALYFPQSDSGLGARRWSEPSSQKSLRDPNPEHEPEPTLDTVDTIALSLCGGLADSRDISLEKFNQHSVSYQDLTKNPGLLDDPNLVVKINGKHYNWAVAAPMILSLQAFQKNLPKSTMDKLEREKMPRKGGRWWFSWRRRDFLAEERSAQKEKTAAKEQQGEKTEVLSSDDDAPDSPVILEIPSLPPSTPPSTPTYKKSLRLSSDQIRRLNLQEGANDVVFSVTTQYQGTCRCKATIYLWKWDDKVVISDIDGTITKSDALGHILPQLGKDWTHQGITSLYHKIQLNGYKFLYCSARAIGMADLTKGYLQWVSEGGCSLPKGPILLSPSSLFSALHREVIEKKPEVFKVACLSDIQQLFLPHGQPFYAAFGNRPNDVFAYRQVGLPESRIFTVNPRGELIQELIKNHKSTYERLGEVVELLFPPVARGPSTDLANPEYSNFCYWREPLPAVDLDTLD
UniProt P01130: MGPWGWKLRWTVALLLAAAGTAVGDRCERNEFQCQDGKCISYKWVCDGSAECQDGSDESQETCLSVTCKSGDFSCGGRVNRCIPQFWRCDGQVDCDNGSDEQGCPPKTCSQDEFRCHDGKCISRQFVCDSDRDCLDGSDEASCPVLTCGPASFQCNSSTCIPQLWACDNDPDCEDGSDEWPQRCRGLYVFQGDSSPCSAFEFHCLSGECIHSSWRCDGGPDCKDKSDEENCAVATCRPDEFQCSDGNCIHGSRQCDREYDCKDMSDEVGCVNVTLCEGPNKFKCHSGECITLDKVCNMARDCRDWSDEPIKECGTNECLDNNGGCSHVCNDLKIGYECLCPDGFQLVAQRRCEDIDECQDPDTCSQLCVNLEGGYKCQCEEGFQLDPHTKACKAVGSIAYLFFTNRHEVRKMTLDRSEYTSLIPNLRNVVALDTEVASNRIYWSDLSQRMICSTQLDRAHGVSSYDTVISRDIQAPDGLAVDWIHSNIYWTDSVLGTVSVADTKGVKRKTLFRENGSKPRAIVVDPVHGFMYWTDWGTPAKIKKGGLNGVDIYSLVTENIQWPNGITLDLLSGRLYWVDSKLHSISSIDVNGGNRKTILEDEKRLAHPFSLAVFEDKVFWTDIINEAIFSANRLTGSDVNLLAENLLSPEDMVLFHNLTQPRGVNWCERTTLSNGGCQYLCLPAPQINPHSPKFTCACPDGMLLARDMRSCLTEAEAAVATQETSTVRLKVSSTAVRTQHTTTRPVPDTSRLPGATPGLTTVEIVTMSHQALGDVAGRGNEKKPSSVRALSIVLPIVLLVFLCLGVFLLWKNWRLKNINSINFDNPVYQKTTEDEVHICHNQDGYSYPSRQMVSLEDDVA
UniProt P02750: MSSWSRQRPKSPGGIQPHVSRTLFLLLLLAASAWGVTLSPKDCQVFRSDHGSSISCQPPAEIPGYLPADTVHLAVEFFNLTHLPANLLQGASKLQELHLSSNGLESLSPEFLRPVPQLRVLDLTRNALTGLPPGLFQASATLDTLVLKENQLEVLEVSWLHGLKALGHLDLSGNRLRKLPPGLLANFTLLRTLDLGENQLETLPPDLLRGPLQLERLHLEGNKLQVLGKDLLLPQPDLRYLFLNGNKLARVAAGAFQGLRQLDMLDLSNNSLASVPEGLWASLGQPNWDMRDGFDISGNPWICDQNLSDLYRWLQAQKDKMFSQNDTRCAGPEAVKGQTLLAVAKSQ
UniProt Q92615, whole entry, looked up: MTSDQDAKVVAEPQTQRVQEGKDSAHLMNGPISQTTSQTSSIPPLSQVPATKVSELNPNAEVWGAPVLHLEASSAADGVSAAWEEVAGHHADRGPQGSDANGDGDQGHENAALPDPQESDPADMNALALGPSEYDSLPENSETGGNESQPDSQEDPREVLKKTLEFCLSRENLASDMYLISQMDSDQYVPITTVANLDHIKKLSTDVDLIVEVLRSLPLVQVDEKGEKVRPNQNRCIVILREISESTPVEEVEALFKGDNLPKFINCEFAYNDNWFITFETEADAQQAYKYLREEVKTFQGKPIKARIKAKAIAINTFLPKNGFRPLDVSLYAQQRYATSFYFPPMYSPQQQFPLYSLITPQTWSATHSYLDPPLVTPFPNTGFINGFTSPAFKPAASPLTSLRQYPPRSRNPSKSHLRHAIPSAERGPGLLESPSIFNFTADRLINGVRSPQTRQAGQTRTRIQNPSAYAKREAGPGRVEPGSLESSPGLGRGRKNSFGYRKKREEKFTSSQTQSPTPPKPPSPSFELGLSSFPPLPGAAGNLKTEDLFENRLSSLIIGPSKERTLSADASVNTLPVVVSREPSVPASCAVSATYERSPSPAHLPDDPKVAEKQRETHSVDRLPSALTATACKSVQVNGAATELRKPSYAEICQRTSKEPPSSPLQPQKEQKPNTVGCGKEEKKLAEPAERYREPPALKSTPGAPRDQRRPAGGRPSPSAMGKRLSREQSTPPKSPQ
UniProt Q68DH5: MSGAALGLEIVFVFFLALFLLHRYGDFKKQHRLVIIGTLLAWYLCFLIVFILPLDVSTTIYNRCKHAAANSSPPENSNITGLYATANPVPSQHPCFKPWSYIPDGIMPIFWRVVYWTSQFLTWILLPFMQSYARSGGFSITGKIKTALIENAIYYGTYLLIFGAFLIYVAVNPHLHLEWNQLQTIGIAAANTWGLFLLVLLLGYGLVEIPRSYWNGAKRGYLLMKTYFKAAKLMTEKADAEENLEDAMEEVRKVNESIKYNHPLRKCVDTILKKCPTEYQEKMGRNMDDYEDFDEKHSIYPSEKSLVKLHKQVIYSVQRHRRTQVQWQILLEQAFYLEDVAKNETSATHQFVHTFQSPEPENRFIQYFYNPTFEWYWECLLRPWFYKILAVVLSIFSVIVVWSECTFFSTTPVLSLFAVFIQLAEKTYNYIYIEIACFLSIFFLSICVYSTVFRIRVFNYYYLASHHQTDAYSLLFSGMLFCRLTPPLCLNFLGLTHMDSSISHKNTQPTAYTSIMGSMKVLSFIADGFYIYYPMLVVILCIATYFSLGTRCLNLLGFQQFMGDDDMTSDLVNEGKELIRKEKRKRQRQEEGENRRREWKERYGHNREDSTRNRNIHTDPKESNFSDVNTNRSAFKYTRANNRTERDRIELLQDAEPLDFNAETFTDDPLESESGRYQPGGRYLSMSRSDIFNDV
UniProt Q9UGP4: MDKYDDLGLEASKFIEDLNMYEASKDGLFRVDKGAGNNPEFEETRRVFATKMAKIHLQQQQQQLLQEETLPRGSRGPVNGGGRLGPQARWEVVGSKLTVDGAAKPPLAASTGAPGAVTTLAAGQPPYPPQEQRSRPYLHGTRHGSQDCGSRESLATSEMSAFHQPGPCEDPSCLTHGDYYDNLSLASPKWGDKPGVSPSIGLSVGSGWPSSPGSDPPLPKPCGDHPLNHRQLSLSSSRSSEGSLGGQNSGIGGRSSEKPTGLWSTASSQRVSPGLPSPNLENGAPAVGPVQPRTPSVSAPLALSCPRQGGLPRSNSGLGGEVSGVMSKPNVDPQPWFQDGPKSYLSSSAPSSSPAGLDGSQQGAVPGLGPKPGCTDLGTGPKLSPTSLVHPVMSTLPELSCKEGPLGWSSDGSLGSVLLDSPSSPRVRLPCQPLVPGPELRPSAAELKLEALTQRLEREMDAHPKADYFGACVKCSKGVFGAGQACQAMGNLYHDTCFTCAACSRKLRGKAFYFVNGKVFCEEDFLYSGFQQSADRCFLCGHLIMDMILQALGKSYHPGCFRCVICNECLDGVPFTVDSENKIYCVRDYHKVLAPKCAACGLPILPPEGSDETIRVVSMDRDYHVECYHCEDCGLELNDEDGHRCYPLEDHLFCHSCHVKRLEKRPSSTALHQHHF
UniProt P13473: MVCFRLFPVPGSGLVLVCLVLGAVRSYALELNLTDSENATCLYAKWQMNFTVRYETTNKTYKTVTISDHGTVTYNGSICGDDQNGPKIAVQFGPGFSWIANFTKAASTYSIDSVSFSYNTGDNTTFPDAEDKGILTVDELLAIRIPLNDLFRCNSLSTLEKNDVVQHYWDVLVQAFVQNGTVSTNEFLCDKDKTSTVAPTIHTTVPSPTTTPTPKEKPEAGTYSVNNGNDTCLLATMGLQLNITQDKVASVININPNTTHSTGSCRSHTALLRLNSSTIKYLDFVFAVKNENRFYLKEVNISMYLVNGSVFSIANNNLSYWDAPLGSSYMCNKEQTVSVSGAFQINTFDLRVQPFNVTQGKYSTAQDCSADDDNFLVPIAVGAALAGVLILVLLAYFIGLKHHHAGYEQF
UniProt P23490: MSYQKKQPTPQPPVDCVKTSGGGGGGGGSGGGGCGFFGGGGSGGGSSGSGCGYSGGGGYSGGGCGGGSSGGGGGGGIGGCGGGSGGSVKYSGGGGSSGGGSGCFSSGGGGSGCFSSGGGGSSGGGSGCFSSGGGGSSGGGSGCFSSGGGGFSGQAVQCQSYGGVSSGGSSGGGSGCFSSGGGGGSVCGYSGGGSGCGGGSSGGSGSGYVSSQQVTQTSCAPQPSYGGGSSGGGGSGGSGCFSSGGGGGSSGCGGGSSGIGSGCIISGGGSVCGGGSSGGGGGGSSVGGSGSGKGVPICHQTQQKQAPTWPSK
UniProt Q96FQ7: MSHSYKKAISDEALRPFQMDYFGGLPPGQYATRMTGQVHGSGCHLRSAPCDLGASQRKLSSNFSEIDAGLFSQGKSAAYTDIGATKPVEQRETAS
UniProt P06858: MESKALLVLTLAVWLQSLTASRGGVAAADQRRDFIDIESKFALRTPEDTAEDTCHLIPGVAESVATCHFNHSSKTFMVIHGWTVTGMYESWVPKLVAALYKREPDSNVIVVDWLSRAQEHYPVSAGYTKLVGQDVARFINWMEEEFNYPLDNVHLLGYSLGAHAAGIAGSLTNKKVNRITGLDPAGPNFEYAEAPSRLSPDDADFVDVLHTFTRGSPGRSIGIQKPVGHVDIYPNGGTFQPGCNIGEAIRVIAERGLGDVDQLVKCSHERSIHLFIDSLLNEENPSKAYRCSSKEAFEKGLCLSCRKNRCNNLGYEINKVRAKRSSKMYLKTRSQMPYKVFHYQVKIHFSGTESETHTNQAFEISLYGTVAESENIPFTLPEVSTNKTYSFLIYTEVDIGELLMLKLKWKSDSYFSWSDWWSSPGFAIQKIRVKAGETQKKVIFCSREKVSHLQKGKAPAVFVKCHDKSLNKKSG

volasertib = compound: CC[C@@H]1C(=O)N(C)c2cnc(Nc3ccc(C(=O)N[C@H]4CC[C@H](N5CCN(CC6CC6)CC5)CC4)cc3OC)nc2N1C(C)C [volasertib]
Procedure, shortened: as §1

[2] = compound: CC[C@H](C)N1C=C(C2=C(C=C(C=C21)C3=CN=C(C=C3)N4CCNCC4)C(=O)NCC5=C(C=C(NC5=O)C)C)C
Procedure, shortened: as §1

epoxomicin = compound: CC[C@H](C)[C@@H](C(=O)N[C@@H]([C@@H](C)O)C(=O)N[C@@H](CC(C)C)C(=O)[C@]1(CO1)C)NC(=O)[C@H]([C@@H](C)CC)N(C)C(=O)C [epoxomicin]
Procedure, shortened: as §1

[3] = compound: CN(C)CC(=O)Nc1ccc2[nH]c(=O)c3ccccc3c2c1
Procedure, shortened: as §1

[4] = compound: CN1C2=C(C3=C1C(=O)N(N=C3)CC4=CC(=CC=C4)N)SC(=C2)S(=O)C
Procedure, shortened: as §1

saracatinib = compound: CN1CCN(CCOc2cc(OC3CCOCC3)c3c(Nc4c(Cl)ccc5c4OCO5)ncnc3c2)CC1 [saracatinib]
Procedure, shortened: as §1

sotrastaurin = compound: CN1CCN(c2nc(C3=C(c4c[nH]c5ccccc45)C(=O)NC3=O)c3ccccc3n2)CC1 [sotrastaurin]
Procedure, shortened: as §1

Tubastatin A = compound: CN1CCc2c(c3ccccc3n2Cc2ccc(C(=O)NO)cc2)C1 [Tubastatin A]
Procedure, shortened: as §1

[5] = compound: CNC(=O)C1=CC=CC=C1NC2=NC(=NC=C2Cl)NC3=C(C=C(C=C3)N4CCOCC4)OC
Procedure, shortened: as §1

defactinib = compound: CNC(=O)c1ccc(Nc2ncc(C(F)(F)F)c(NCc3nccnc3N(C)S(C)(=O)=O)n2)cc1 [defactinib]
Procedure, shortened: as §1

rucaparib = compound: CNCc1ccc(-c2[nH]c3cc(F)cc4c3c2CCNC4=O)cc1 [rucaparib]
Procedure, shortened: as §1

[6] = compound: CNc1nc(-c2ccc3c(N)n[nH]c3c2)cc(N2C[C@@H](C(=O)NC3CCCCC3)CC[C@H]2C)n1
Procedure, shortened: as §1

encorafenib = compound: COC(=O)N[C@@H](C)CNc1nccc(-c2cn(C(C)C)nc2-c2cc(Cl)cc(NS(C)(=O)=O)c2F)n1 [encorafenib]
Procedure, shortened: as §1

[7] = compound: COC(=O)[C@H](CCSC)NC(=O)C1=C(C=C(C=C1)NC[C@H](CS)N)C2=CC=CC=C2
Procedure, shortened: as §1

[8] = compound: CCn1cc(-c2ccnc3[nH]c(-c4cccc(CN(C)C)c4)cc23)c(-c2ccc(NC(=O)N(C)C)cc2)n1
Procedure, shortened: as §1

[9] = compound: CN1CCC(CNc2ccc3ncc(-c4cccc(OC(F)(F)F)c4)n3n2)CC1
Procedure, shortened: as §1

[10] = compound: CCn1c(C(=O)N(C2CC2)C2CC2)cc2c3c(ncn3C)c(Nc3cc(C)n(C)n3)nc21
Procedure, shortened: as §1

alvocidib = compound: CN1CC[C@H](c2c(O)cc(O)c3c(=O)cc(-c4ccccc4Cl)oc23)[C@H](O)C1 [alvocidib]
Procedure, shortened: as §1

rosiglitazone = compound: CN(CCOC1=CC=C(C=C1)C[C@H]2C(=O)NC(=O)S2)C3=CC=CC=N3 (racemic) [rosiglitazone]
Procedure, shortened: as §1

Measured: log2 fold change

LPGAT1 (UniProt Q92604)
inactive: [1] -0.206 | [2] 0.063 | epoxomicin 0.015 | [3] 0.051 | [4] -0.029 | saracatinib 0.111 | sotrastaurin -0.001 | Tubastatin A 0.019 | [5] 0.073 | defactinib -0.184 | rucaparib 0.036 | [6] -0.187 | encorafenib 0.026 | [7] 0.015
active: volasertib -0.401

LMNB1 (UniProt P20700)
inactive: [1] -0.045 | [2] 0.023 | epoxomicin 0.037 | [8] 0.115 | [3] 0.034 | [4] -0.034 | [9] 0.026 | saracatinib 0.029 | sotrastaurin -0.11 | Tubastatin A -0.016 | [5] 0.007 | defactinib -0.166 | rucaparib -0.035 | [6] -0.095 | encorafenib 0.016 | [7] 0.032
active: volasertib -0.308

LARP4 isoform 4 (UniProt Q71RC2)
inactive: [1] -0.016 | volasertib -0.351 | [2] 0.117 | epoxomicin -0.107 | [8] 0.07 | [3] 0.009 | [4] 0.137 | [9] -0.252 | saracatinib -0.066 | sotrastaurin -0.051 | Tubastatin A 0.041 | [5] 0.047 | defactinib -0.036 | rucaparib 0.257 | [6] 0.059 | encorafenib 0.086 | [7] -0.014

LPIN3 isoform 2 (UniProt Q9BQK8)
active: [9] -0.27
inactive: [1] 0.016 | volasertib -0.015 | [2] 0.04 | epoxomicin 0.073 | [8] -0.078 | [3] -0.054 | [4] 0.002 | saracatinib -0.101 | sotrastaurin 0.171 | Tubastatin A 0.093 | [5] -0.087 | defactinib -0.022 | rucaparib 0.049 | [6] 0.049 | encorafenib 0.051 | [7] -0.012

LRPPRC (UniProt P42704)
inactive: [1] -0.413 | volasertib -0.801 | [2] 0.161 | epoxomicin 0.277 | [8] 0.01 | [3] 0.334 | [4] 0.177 | [9] -0.323 | saracatinib -0.281 | sotrastaurin -0.874 | Tubastatin A 0.316 | [5] -0.241 | defactinib -0.346 | rucaparib 0.395 | [6] -0.175 | encorafenib 0.116 | [7] -0.103

LDLR (UniProt P01130)
inactive: [1] -0.135 | volasertib -0.176 | [2] -0.028 | epoxomicin 0.031 | [8] 0.058 | [3] -0.059 | [4] -0.004 | [9] 0.064 | saracatinib 0.113 | sotrastaurin 0.003 | Tubastatin A -0.002 | [5] 0.003 | defactinib -0.033 | rucaparib 0 | [6] -0.065 | encorafenib 0.01 | [7] 0.104

LRG1 (UniProt P02750)
inactive: [1] 0.046 | volasertib -0.01 | epoxomicin 0.365 | [10] -0.229 | [8] -0.017 | [3] 0.038 | [4] 0.107 | [9] 0.243 | saracatinib -0.002 | sotrastaurin 0.058 | alvocidib 0.002 | Tubastatin A 0.318 | [5] 0.028 | defactinib -0.004 | rucaparib -0.178 | [6] -0.369 | encorafenib -0.023 | [7] -0.001

LARP4B (UniProt Q92615)
inactive: [1] 0.025 | volasertib -0.15 | [2] 0.061 | epoxomicin -0.037 | [8] 0.073 | [3] 0.034 | [4] 0.096 | [9] -0.218 | saracatinib -0.009 | sotrastaurin -0.083 | Tubastatin A -0.033 | [5] -0.025 | defactinib -0.037 | rucaparib 0.273 | [6] 0.02 | encorafenib 0.094 | [7] 0.032

LMBRD2 (UniProt Q68DH5)
active: [9] -0.362
inactive: [1] -0.063 | volasertib -0.042 | [2] -0.012 | epoxomicin 0.081 | [8] -0.018 | [3] 0.002 | [4] -0.008 | saracatinib 0.04 | sotrastaurin 0.02 | Tubastatin A -0.032 | [5] -0.014 | defactinib -0.01 | rucaparib 0.003 | [6] -0.037 | encorafenib 0.021 | [7] -0.021

LIMD1 (UniProt Q9UGP4)
active: volasertib -0.245
inactive: [1] -0.055 | [2] 0.042 | epoxomicin -0.018 | [8] 0.002 | [3] 0.015 | [4] -0.028 | [9] -0.043 | saracatinib 0.074 | sotrastaurin -0.011 | Tubastatin A -0.034 | [5] -0.029 | defactinib -0.03 | rucaparib -0.008 | [6] -0.01 | encorafenib 0.004 | [7] 0.004

LRBA, A0A494BZW2
inactive: [1] -0.04 | volasertib -0.025 | [2] 0.007 | epoxomicin -0.03 | [8] -0.039 | [4] 0.043 | [9] -0.115 | saracatinib -0.005 | sotrastaurin 0.065 | Tubastatin A -0.42 | [5] -0.368 | rucaparib -0.055 | [6] -0.008 | encorafenib 0.041

LDAH isoform 2 (UniProt Q9H6V9)
inactive: [1] -0.062 | [2] 0.007 | epoxomicin -0.052 | [8] -0.148 | [3] 0.049 | [4] -0.137 | saracatinib 0.092 | sotrastaurin 0.035 | Tubastatin A -0.03 | [5] -0.001 | defactinib -0.09 | rucaparib -0.004 | [6] -0.043 | encorafenib 0.04 | [7] -0.063
active: volasertib -0.374 | [9] -0.688

LAMP2 isoform 2 (UniProt P13473)
inactive: [1] -0.137 | volasertib -0.081 | [2] -0.078 | epoxomicin -0.016 | [8] -0.01 | [3] 0.012 | [4] -0.112 | saracatinib 0.24 | Tubastatin A 0.021 | [5] 0.027 | defactinib 0.078 | rucaparib 0.024 | [6] -0.192 | encorafenib 0.043 | [7] -0.017
active: [9] -0.485

LIMD2 (UniProt Q9BT23)
inactive: [1] 0.067 | volasertib -0.017 | [10] -0.068 | sotrastaurin 0.136 | alvocidib 0.113 | Tubastatin A 0.016 | [5] -0.058 | rucaparib -0.109 | encorafenib 0.058

LMTK2 (UniProt Q8IWU2)
inactive: volasertib 0.05 | epoxomicin 0.052 | [10] 0.086 | [8] -0.07 | [3] -0.071 | rosiglitazone 0.037 | [4] 0.147 | [9] -0.133 | saracatinib 0.13 | sotrastaurin -0.037 | alvocidib -0.036 | Tubastatin A -0.001 | [5] -0.014 | defactinib -0.076 | [6] 0.116 | [7] 0.044

LOR (UniProt P23490)
inactive: [1] 0 | epoxomicin 0.711 | rucaparib -0.137 | encorafenib -0.09

Two records drawn at random from those above:
LRBA, A0A494BZW2
inactive: [1] -0.04 | volasertib -0.025 | [2] 0.007 | epoxomicin -0.03 | [8] -0.039 | [4] 0.043 | [9] -0.115 | saracatinib -0.005 | sotrastaurin 0.065 | Tubastatin A -0.42 | [5] -0.368 | rucaparib -0.055 | [6] -0.008 | encorafenib 0.041

LDAH isoform 2 (UniProt Q9H6V9)
inactive: [1] -0.062 | [2] 0.007 | epoxomicin -0.052 | [8] -0.148 | [3] 0.049 | [4] -0.137 | saracatinib 0.092 | sotrastaurin 0.035 | Tubastatin A -0.03 | [5] -0.001 | defactinib -0.09 | rucaparib -0.004 | [6] -0.043 | encorafenib 0.04 | [7] -0.063
active: volasertib -0.374 | [9] -0.688

Carrying on.

LINC00526 (UniProt Q96FQ7)
inactive: [1] -0.1 | [10] 0.095 | [5] 0.09 | rucaparib 0.196 | encorafenib -0.019

LARP1B, A0A3B3ISF0
inactive: [1] -0.127 | volasertib 0.086 | [8] 0.201 | [9] 0.155 | sotrastaurin 0.037 | rucaparib 0.252 | encorafenib 0.218

LENG8 (UniProt Q96PV6)
inactive: [1] -0.029 | [2] -0.009 | epoxomicin 0.101 | [8] 0.073 | [3] 0.065 | [4] -0.225 | [9] -0.238 | saracatinib -0.112 | sotrastaurin -0.043 | Tubastatin A -0.021 | [5] -0.125 | defactinib -0.316 | rucaparib 0.044 | [6] 0.133 | encorafenib 0.129 | [7] -0.133

LRP6 (UniProt O75581)
inactive: [1] 0.042 | volasertib -0.086 | [10] 0.074 | [8] -0.185 | rosiglitazone 0.092 | [4] -0.383 | [9] -0.071 | saracatinib -0.067 | sotrastaurin -0.033 | alvocidib 0.113 | Tubastatin A 0.129 | [5] -0.109 | rucaparib -0.066 | [6] 0.074 | encorafenib -0.138

LPL (UniProt P06858)
inactive: [1] 0.289 | volasertib 0.006 | [10] -0.188 | [8] 0.041 | [3] -0.093 | [4] -0.003 | [9] 0.085 | saracatinib -0.148 | sotrastaurin 0.075 | alvocidib -0.006 | Tubastatin A 0.447 | [5] -0.036 | defactinib -0.11 | rucaparib 0.189 | [6] 0.05 | encorafenib -0.252 | [7] 0
